Source: article doi:10.1101/137711
Results are given in words; binding and its absence hold for the method and conditions named. Some entries that bind do so weakly or less than the wild type. For some of these results: Sequences can lack the tags named with a protein.

T1: Brn1 kleisin subunit of condensin, Brn1-HA3-His12 (S. cerevisiae) (UniProt P38170)
T1 sequence: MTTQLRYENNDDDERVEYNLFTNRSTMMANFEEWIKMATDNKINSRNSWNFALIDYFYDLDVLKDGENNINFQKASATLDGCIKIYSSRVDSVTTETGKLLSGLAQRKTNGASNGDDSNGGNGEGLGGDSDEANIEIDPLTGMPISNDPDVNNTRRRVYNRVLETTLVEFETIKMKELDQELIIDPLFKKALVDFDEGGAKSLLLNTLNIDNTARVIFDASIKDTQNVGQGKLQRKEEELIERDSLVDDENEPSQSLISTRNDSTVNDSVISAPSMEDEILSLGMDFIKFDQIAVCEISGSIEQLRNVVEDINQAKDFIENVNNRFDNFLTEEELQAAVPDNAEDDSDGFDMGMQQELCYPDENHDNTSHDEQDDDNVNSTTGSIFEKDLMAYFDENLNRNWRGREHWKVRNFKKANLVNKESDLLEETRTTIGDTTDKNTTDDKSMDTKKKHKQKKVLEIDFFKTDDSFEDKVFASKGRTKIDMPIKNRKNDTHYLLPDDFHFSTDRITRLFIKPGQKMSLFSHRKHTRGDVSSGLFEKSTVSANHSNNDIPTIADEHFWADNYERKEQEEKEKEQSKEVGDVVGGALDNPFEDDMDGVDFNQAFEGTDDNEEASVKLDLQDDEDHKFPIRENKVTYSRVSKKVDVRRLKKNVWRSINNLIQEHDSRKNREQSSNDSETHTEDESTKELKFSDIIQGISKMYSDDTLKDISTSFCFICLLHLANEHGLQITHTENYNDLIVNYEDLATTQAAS

T2: Smc4(Q302L)-StrepII3, ATPase-deficient Q-loop mutant (S. cerevisiae) (UniProt Q12267)
T2 sequence: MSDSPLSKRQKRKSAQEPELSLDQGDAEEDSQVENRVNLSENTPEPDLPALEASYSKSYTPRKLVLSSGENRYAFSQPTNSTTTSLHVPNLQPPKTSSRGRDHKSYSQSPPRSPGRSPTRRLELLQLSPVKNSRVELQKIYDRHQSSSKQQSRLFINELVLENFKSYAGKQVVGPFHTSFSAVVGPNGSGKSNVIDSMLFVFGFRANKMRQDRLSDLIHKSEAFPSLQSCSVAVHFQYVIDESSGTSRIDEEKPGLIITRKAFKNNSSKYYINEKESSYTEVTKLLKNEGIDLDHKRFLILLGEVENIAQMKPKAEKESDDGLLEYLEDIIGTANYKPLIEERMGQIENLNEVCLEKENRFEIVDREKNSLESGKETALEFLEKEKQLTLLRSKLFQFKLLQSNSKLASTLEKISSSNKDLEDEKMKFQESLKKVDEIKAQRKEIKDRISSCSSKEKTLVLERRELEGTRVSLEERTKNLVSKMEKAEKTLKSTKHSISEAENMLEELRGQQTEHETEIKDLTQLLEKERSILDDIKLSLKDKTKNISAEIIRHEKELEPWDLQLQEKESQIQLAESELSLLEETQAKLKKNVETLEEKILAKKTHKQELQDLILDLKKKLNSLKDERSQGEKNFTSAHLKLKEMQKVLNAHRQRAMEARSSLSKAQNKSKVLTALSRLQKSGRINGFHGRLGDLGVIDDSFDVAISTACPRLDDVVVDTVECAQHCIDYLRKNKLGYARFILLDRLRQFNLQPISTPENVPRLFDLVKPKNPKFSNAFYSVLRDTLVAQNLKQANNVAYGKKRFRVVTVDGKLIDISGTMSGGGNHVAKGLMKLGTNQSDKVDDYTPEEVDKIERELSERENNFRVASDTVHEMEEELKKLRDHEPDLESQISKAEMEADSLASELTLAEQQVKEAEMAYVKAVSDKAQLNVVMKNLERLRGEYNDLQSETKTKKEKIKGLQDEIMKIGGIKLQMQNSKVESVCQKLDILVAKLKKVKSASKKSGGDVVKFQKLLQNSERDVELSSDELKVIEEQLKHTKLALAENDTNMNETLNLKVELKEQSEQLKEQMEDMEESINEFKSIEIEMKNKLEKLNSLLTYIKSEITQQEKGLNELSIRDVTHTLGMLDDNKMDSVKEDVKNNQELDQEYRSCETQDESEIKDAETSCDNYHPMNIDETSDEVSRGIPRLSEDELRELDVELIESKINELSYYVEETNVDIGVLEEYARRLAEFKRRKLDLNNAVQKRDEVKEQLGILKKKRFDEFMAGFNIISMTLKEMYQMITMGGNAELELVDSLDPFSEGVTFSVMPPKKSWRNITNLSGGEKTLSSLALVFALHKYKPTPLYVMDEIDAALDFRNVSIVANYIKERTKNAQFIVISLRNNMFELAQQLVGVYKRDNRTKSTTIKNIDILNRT


Legend:
[1] = target: T1, Brn1 kleisin subunit of condensin, Brn1-HA3-His12 (S. cerevisiae); experiment: tandem affinity co-purification + SEC
[2] = target: T2, Smc4(Q302L)-StrepII3, ATPase-deficient Q-loop mutant (S. cerevisiae); experiment: tandem affinity co-purification + SEC

Binder | binding [1] | binding [2]
Smc2(Q147L), ATPase-deficient Q-loop mutant (protein, UniProt P38989 1-1170) MKVEELIIDGFKSYATRTVITDWDPQFNAITGLNGSGKSNILDAICFVLGIASMSTVRASSLQDLIYKRGQAGVTKASVTIVFDNTDKSNSPIGFTNSPQISVTRQVVLGGTSKYLINGHRAPQQSVLQLFQSVQLNINNPNFLIMLGKITKVLNMKPSEILSLIEEAAGTKMFEDRREKAERTMSKKETKLQENRTLLTEEIEPKLEKLRNEKRMFLEFQSTQTDLEKTERIVVSYEYYNIKHKHTSIRETLENGETRMKMLNEFVKKTSEEIDSLNEDVEEIKLQKEKELHKEGTISKLENKENGLLNEISRLKTSLSIKVENLNDTTEKSKALESEIASSSAKLIEKKSAYANTEKDYKMVQEQLSKQRDLYKRKEELVSTLTTGISSTGAADGGYNAQLAKAKTELNEVSLAIKKSSMKMELLKKELLTIEPKLKEATKDNELNVKHVKQCQETCDKLRARLVEYGFDPSRIKDLKQREDKLKSHYYQTCKNSEYLKRRVTNLEFNYTKPYPNFEASFVHGVVGQLFQIDNDNIRYATALQTCAGGRLFNVVVQDSQTATQLLERGRLRKRVTIIPLDKIYTRPISSQVLDLAKKIAPGKVELAINLIRFDESITKAMEFIFGNSLICEDPETAKKITFHPKIRARSITLQGDVYDPEGTLSGGSRNTSESLLVDIQKYNQIQKQIETIQADLNHVTEELQTQYATSQKTKTIQSDLNLSLHKLDLAKRNLDANPSSQIIARNEEILRDIGECENEIKTKQMSLKKCQEEVSTIEKDMKEYDSDKGSKLNELKKELKLLAKELEEQESESERKYDLFQNLELETEQLSSELDSNKTLLHNHLKSIESLKLENSDLEGKIRGVEDDLVTVQTELNEEKKRLMDIDDELNELETLIKKKQDEKKSSELELQKLVHDLNKYKSNTNNMEKIIEDLRQKHEFLEDFDLVRNIVKQNEGIDLDTYRERSKQLNEKFQELRKKVNPNIMNMIENVEKKEAALKTMIKTIEKDKMKIQETISKLNEYKRETLVKTWEKVTLDFGNIFADLLPNSFAKLVPCEGKDVTQGLEVKVKLGNIWKESLIELSGGQRSLIALSLIMALLQFRPAPMYILDEVDAALDLSHTQNIGHLIKTRFKGSQFIVVSLKEGMFANANRVFRTRFQDGTSVVSIM | binds | binds
Ycg1 HEAT-repeat subunit of condensin (protein, UniProt Q06680 1-1035) MQDPDGIDINTKIFNSVAEVFQKAQGSYAGHRKHIAVLKKIQSKAVEQGYEDAFNFWFDKLVTKILPLKKNEIIGDRIVKLVAAFIASLERELILAKKQNYKLTNDEEGIFSRFVDQFIRHVLRGVESPDKNVRFRVLQLLAVIMDNIGEIDESLFNLLILSLNKRIYDREPTVRIQAVFCLTKFQDEEQTEHLTELSDNEENFEATRTLVASIQNDPSAEVRRAAMLNLINDNNTRPYILERARDVNIVNRRLVYSRILKSMGRKCFDDIEPHIFDQLIEWGLEDRELSVRNACKRLIAHDWLNALDGDLIELLEKLDVSRSSVCVKAIEALFQSRPDILSKIKFPESIWKDFTVEIAFLFRAIYLYCLDNNITEMLEENFPEASKLSEHLNHYILLRYHHNDISNDSQSHFDYNTLEFIIEQLSIAAERYDYSDEVGRRSMLTVVRNMLALTTLSEPLIKIGIRVMKSLSINEKDFVTMAIEIINDIRDDDIEKQEQEEKIKSKKINRRNETSVDEEDENGTHNDEVNEDEEDDNISSFHSAVENLVQGNGNVSESDIINNLPPEKEASSATIVLCLTRSSYMLELVNTPLTENILIASLMDTLITPAVRNTAPNIRELGVKNLGLCCLLDVKLAIDNMYILGMCVSKGNASLKYIALQVIVDIFSVHGNTVVDGEGKVDSISLHKIFYKVLKNNGLPECQVIAAEGLCKLFLADVFTDDDLFETLVLSYFSPINSSNEALVQAFAFCIPVYCFSHPAHQQRMSRTAADILLRLCVLWDDLQSSVIPEVDREAMLKPNIIFQQLLFWTDPRNLVNQTGSTKKDTVQLTFLIDVLKIYAQIEKKEIKKMIITNINAIFLSSEQDYSTLKELLEYSDDIAENDNLDNVSKNALDKLRNNLNSLIEEINERSETQTKDENNTANDQYSSILGNSFNKSSNDTIEHAADITDGNNTELTKTTVNISAVDNTTEQSNSRKRTRSEAEQIDTSKNLENMSIQDTSTVAKNVSFVLPDEKSDAMSIDEEDKDSESFSEVC | binds | binds
